Test results taken from the supplement of paper PMC7024190.
The list shows a part of the results. Repeats in this data set agree poorly, so a single value says little.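 A first-round screen of about ten thousand compounds sought those raising reporter output, using human embryonic kidney cells briefly transfected with a plasmid carrying a Renilla luciferase gene driven by the HSV-TK promoter.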

System: HEK 293FT
Test: log relative Renilla luciferase luminescence (reporter expression vs reference, reference not stated) (log (base not stated)); higher = higher recombinant reporter expression
Details: 10 µM; time after transfection 48 h
Experimental: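 HEK 293FT cells transiently transfected with pRL-TK (Renilla luciferase) were treated with compounds at 10 uM and luminescence was read about 42 h later. Values are log relative Renilla luminescence (log base and reference not stated). Single-pass screen; ICCB Known Bioactives library.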

Row | Compound | log
1 | CC[N+](C)(CC)CCC[n+]1c(-c2ccccc2)c2cc(N)ccc2c2ccc(N)cc21 [Propidium iodide] | -0.671
2 | C=C1C(=O)O[C@H]2[C@H]1CC/C(C)=C/CC[C@@]1(C)O[C@@H]21 [Parthenolide] | -1.14
3 | C=C[C@@]1(C)CC(=O)[C@]2(O)[C@@]3(C)[C@@H](O)CCC(C)(C)[C@@H]3[C@H](O)[C@H](OC(C)=O)[C@@]2(C)O1 [Forskolin] | 0.282
4 | CN1CCN(CCCN2c3ccccc3Sc3ccc(C(F)(F)F)cc32)CC1 [Trifluoperazine] | -0.0865
5 | CCOc1ccc(-c2nc3ccc(-c4nc5ccc(N6CCN(C)CC6)cc5[nH]4)cc3[nH]2)cc1 | -1.93
6 | CC(=O)OCOC(c1ccc2ccccc2c1)P(=O)(OCOC(C)=O)OCOC(C)=O (stereo not given) | 0.331
7 | CCCCCCCCC#CCC#CCC#CCCCC(=O)O [5,8,11-Eicosatriynoic acid] | 0.235
8 | O=[N+]([O-])c1cccc2c(Br)[nH]nc12 [Bromo-7-nitroindazole [3-Bromo-7-nitroindazole]] | -0.267
9 | CCCCCCCCCCCCCCCCOCC(CO)OC(C)=O (stereo not given) [1-Hexadecyl-2-O-acetyl-glycerol] | -0.11
10 | CC(COc1ccccc1)N(CCCl)Cc1ccccc1 (stereo not given) [Phenoxybenzamine] | -0.253
11 | CC/C=C\C/C=C\C/C=C\CCCCCCCC(=O)O [Linolenic acid (18:3 n-3)] | -0.171
12 | COCc1cc(O)c(O)c(O)c1-c1c(COC)cc(O)c(O)c1O | 0.292
13 | CCCCCC(O)C=CC1C2CC(CO2)C1CC=CCCCC(=O)O (stereo not given) | -0.167
14 | COC(C)(C)CCCC(C)C/C=C/C(C)=C/C(=O)O (stereo not given) [Methoprene acid] | -0.0792
15 | c1ccc2c(Cc3c[nH]c4ccccc34)c[nH]c2c1 [Diindolylmethane] | -0.195
16 | CCCCCCOC(=O)[C@]1(O)C[C@@H]2O[C@@]1(C)n1c3ccccc3c3c4c(c5c6ccccc6n2c5c31)C(=O)NC4 | -0.128
17 | CCCCC/C=C\C/C=C\CCCCCCCC(=O)NCC(=O)O [N-Linoleoylglycine] | -0.198
18 | CCCCCCCCCCCC=CC(C)(C)C=CCCCC(=O)O [7,7-Dimethyleicosadienoic acid] | 0.102
19 | CC(=N)NCc1cccc(CN)c1 | 0.255
20 | CC(C)[C@@H]1NC(=O)[C@H](Cc2ccccc2)NC(=O)[C@@H](CC(=O)O)NC(=O)CNC(=O)[C@H](CCCN=C(N)N)NC1=O [Cyclo [Arg-Gly-Asp-D-Phe-Val]] | -0.151

Row | Compound | log
21 | CCCCC/C=C\C\C=C/C=C/C=C/[C@@H](SC[C@H](N)C(=O)NCC(=O)O)[C@@H](O)CCCC(=O)O [Leukotriene D4] | -0.13
22 | CCOC(=O)C1=C(N)Oc2ccc(Br)cc2C1C(C#N)C(=O)OCC (stereo not given) | 0.0421
23 | C=C1O[C@@](CO)(n2cnc3c(N)ncnc32)[C@H](O)[C@@H]1O [Decoyinine] | 0.322
24 | NC12CC3CC(CC(C3)C1)C2 [Amantidine] | 0.0483
25 | CC1(C2CCCC2)Cc2cc(OCC(=O)O)c(Cl)c(Cl)c2C1=O (stereo not given) | 0.163
26 | OC[C@@H]1NC[C@H](O)[C@H](O)[C@H]1O [Deoxymannojirimycin(1)] | 0.288
27 | COC(=O)Nc1nc2cc(C(=O)c3cccs3)ccc2[nH]1 [Nocodazole] | -0.625
28 | N/C(=N\C(=O)c1nc(Cl)c(N)nc1N)NCc1ccccc1 [Benzamil] | -0.0456
29 | CC1=NN(c2ccccc2)C(=O)C1 | 0.257
30 | CC(=O)N[C@@H](CC(C)C)C(=O)N[C@@H](CC(C)C)C(=O)N[C@H](C=O)CCCNC(=N)N [Leupeptin] | 0.363
31 | Nc1cc(N2CCCCC2)nc(N)[n+]1[O-] [Minoxidil] | -0.00904
32 | O=Nc1c(-c2c(O)[nH]c3ccccc23)[nH]c2ccccc12 [Indirubin-3'-monoxime] | -0.412
33 | COc1cc2ncnc(Nc3cccc(Cl)c3)c2cc1OC | -0.447
34 | O=C(NCCCCCCNC(=O)ON=C1CCCCC1)ON=C1CCCCC1 | -1.1
35 | C=C[C@H]1CN2CC[C@H]1C[C@@H]2[C@@H](O)c1ccnc2ccc(OC)cc12 [Quinidine] | 0.154
36 | COc1c(C)c2c(c(O)c1C/C=C(\C)CCC(=O)O)C(=O)OC2 [Mycophenolic acid] | -0.159
37 | CC/C=C\C/C=C\C/C=C\C/C=C\C/C=C\CCCC(=O)O [Eicosapentaenoic acid (20:5 n-3)] | -0.169
38 | CC(=O)OCOC(=O)CN(CC(=O)OCOC(C)=O)c1ccccc1OCCOc1ccccc1N(CC(=O)OCOC(C)=O)CC(=O)OCOC(C)=O | -0.146
39 | Cc1ccc(S(=O)(=O)N[C@@H](Cc2ccccc2)C(=O)CCl)cc1 [Tosyl-Phe-CMK (TPCK)] | -0.173
40 | CCCCCCCCCCCCCCCC(=O)NCCO [Palmitylethanolamide] | -0.126

Some of the entries above in a different format:
Row,Compound,log
30,CC(=O)N[C@@H](CC(C)C)C(=O)N[C@@H](CC(C)C)C(=O)N[C@H](C=O)CCCNC(=N)N [Leupeptin],0.363
31,Nc1cc(N2CCCCC2)nc(N)[n+]1[O-] [Minoxidil],-0.00904
32,O=Nc1c(-c2c(O)[nH]c3ccccc23)[nH]c2ccccc12 [Indirubin-3'-monoxime],-0.412
